# Laboratory results: PMC11481257
# Amino acid sequences for entries named in this document (tags omitted).
# UniProt O15131: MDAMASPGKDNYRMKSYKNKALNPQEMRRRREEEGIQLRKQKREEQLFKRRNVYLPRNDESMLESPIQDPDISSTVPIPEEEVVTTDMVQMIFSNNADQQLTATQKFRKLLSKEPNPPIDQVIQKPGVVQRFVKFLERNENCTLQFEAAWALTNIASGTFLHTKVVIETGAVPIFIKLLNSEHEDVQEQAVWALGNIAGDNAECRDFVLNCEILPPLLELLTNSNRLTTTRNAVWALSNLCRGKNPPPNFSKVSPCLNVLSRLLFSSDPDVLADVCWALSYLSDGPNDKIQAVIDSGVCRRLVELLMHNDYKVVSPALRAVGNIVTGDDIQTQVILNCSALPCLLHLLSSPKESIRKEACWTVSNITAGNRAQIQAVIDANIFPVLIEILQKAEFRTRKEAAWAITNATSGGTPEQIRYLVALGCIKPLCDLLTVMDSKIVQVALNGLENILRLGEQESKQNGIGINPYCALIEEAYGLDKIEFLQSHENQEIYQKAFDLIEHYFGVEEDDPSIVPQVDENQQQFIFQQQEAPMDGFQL
# UniProt A9QM74: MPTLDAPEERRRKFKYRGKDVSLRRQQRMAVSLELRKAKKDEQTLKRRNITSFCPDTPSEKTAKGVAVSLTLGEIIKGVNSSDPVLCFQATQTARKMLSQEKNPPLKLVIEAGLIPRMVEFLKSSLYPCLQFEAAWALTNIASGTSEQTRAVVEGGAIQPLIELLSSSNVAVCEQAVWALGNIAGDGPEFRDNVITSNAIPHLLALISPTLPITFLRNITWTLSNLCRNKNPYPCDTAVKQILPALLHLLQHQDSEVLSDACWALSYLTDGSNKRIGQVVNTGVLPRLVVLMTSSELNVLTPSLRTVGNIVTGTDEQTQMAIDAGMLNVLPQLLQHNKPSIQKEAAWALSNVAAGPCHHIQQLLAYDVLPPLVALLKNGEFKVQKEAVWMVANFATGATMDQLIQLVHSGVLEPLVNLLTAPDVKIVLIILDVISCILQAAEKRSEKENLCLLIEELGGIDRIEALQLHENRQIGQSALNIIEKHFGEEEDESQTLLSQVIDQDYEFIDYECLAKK
# UniProt Q13547: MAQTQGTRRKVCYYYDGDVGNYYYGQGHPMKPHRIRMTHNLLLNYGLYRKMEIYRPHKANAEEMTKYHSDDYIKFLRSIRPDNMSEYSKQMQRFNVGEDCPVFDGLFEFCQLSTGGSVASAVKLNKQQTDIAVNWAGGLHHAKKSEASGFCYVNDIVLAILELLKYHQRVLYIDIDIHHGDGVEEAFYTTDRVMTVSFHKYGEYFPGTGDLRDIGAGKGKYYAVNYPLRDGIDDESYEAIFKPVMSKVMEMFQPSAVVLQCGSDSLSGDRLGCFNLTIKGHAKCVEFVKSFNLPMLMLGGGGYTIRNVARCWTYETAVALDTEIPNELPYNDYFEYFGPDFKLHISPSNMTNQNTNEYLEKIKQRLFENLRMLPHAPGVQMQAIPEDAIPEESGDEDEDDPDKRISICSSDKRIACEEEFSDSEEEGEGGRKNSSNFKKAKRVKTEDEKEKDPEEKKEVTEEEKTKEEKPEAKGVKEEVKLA
# Results are given in words; binding and its absence hold for the method and conditions named. In cells and extracts the contact can be indirect. Some entries that bind do so weakly or less than the wild type.
# What was measured:
# [1] = molecular target: FLAG-tagged importin α6 (UniProt O15131); experiment: co-IP; SiHa-PR cells expressing FLAG-tagged importin α6 or α8, with ectopic wild-type LNMAC circRNA, LNMAC mutant or control; co-IP protocol not described
# [2] = molecular target: FLAG-tagged importin α8 (UniProt A9QM74); experiment: as above
substance,measurement,setting,value
histone deacetylase 1 (HDAC1) (from UniProt Q13547 1-482),binding,[1],binds
same,binding,[2],binds
